Residue numbers refer to the chain shown, from its start. Results are given in words; binding and its absence hold for the method and conditions named. Binding seen in cells or lysates may run through a third protein. Some entries that bind do so weakly or less than the wild type.
Key:
[1] = molecular target: T1, α4 tail model protein (WT integrin α4 intracellular domain model protein) (UniProt Q00651); assay: pull-down of recombinant GST-tagged domain by Ni2+ resin loaded with α4 tail model protein
T1 sequence (looked up): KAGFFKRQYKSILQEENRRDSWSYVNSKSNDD

Protein sequences, listed by entry. Tags and fused reporters are not part of them.
UniProt Q8VI36: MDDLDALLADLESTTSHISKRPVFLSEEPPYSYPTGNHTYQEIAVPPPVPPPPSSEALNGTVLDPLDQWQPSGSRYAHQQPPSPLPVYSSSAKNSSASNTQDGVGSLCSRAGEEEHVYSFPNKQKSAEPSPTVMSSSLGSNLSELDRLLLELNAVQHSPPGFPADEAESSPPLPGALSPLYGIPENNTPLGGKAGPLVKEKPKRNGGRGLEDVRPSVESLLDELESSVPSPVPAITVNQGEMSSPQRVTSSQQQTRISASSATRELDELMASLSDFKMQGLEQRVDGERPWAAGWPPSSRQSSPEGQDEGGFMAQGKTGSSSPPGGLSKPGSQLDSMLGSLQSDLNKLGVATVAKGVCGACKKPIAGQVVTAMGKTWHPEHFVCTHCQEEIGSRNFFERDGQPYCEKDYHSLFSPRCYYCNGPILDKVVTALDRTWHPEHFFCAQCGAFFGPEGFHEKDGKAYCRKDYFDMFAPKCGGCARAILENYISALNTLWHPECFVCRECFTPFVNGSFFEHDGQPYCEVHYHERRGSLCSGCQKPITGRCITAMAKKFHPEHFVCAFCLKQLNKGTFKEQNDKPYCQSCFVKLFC

[2] = molecular target: T1, α4 tail model protein (WT integrin α4 intracellular domain model protein); assay: pull-down of recombinant GST-tagged NTD and CTD by Ni2+ resin loaded with α4 tail model protein (figure legend)
[3] = molecular target: T1, α4 tail model protein (WT integrin α4 intracellular domain model protein); assay: pull-down from T cell lysate by Ni2+ resin loaded with integrin tail model proteins, immunoblot
[4] = molecular target: T1, α4 tail model protein (WT integrin α4 intracellular domain model protein); assay: pull-down from T cell lysate by Ni2+ resin loaded with WT or mutant α4 tail model proteins, immunoblot
[5] = molecular target: T2, α4 tail model protein R985A (UniProt Q00651); assay: as above
T2 sequence (looked up): T1 sequence (looked up) with R18A

Row | Substance | binding [1] | binding [2] | also measured
1 | recombinant GST-tagged C-terminal domain of Hsp90AA1 (from UniProt P07901 566-733) | binds | binds | –
2 | recombinant GST-tagged N-terminal domain of Hsp90AB1 (from UniProt P08238 1-228) | binds | binds | –
3 | murine Hsp90AB1 (from UniProt P11499 2-724) | – | – | binding [3]: binds
4 | paxillin (from UniProt Q8VI36 1-591) | – | – | binding [4]: binds; binding [5]: binds
5 | murine Hsp90AA1 (from UniProt P07901 2-733) | – | – | binding [3]: binds

Further lines, with some results ahead:

Row | binding [1] | binding [2] | Substance | also measured
6 | binds | binds | recombinant GST-tagged N-terminal domain of Hsp90AA1 (from UniProt P07901 1-233) | –
7 | binds | binds | recombinant GST-tagged C-terminal domain of Hsp90AB1 (from UniProt P11499 557-724) | –

Source: US20220017599A1
